# Test results from publication PMC6398978.
# Protein sequences, listed by entry. Tags and fused reporters are not part of them.
# UniProt P10085: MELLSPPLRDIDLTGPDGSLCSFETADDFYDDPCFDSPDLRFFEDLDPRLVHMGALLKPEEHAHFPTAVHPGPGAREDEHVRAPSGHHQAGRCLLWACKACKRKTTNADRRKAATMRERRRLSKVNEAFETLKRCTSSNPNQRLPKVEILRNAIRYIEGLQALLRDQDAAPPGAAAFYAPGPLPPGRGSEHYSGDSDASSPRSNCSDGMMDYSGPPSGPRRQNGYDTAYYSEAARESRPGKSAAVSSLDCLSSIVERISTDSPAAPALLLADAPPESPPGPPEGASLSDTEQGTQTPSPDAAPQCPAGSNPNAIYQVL
# UniProt Q9Z2V6: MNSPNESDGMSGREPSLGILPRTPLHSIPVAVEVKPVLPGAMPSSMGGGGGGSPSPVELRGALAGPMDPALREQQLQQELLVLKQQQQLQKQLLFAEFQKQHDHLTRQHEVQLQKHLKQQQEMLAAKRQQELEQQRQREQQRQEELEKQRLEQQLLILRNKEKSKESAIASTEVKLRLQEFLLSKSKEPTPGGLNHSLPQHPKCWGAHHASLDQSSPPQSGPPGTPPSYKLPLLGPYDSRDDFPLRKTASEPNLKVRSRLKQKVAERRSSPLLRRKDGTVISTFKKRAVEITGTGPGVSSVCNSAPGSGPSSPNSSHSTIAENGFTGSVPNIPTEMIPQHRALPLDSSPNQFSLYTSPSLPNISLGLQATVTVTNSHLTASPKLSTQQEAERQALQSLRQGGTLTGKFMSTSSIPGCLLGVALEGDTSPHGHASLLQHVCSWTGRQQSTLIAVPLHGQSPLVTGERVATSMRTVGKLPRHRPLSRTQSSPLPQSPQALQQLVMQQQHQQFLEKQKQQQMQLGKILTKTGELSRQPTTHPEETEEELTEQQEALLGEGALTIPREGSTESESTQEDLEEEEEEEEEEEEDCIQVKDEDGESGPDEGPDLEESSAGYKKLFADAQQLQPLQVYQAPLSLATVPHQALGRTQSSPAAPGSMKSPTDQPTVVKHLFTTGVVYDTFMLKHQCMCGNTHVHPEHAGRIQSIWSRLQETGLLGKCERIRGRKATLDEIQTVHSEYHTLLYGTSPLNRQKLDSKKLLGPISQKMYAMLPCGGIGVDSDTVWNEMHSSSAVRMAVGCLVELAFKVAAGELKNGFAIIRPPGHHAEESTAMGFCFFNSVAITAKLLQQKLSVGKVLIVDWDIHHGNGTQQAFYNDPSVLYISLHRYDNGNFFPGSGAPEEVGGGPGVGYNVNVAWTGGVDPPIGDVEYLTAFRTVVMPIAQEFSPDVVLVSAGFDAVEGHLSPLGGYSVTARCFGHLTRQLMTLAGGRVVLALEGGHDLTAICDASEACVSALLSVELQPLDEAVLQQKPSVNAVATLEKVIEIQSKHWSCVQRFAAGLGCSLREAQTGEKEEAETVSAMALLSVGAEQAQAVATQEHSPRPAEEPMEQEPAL
# UniProt Q9WTL8: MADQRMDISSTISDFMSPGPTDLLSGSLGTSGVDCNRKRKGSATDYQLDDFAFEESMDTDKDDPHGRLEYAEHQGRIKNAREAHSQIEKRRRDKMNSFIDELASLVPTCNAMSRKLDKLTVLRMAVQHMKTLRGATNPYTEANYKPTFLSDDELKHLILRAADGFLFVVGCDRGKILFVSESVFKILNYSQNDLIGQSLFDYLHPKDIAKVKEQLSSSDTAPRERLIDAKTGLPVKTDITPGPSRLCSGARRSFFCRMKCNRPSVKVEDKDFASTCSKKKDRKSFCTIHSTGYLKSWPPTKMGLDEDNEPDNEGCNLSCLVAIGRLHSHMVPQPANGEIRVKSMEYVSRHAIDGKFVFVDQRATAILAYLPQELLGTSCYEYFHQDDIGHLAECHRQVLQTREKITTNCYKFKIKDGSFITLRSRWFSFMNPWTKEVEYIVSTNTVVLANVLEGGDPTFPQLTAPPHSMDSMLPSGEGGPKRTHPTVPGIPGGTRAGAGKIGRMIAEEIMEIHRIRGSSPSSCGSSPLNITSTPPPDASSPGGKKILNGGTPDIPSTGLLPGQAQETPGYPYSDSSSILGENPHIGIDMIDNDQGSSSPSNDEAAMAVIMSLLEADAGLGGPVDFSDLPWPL
# UniProt Q8CFN5: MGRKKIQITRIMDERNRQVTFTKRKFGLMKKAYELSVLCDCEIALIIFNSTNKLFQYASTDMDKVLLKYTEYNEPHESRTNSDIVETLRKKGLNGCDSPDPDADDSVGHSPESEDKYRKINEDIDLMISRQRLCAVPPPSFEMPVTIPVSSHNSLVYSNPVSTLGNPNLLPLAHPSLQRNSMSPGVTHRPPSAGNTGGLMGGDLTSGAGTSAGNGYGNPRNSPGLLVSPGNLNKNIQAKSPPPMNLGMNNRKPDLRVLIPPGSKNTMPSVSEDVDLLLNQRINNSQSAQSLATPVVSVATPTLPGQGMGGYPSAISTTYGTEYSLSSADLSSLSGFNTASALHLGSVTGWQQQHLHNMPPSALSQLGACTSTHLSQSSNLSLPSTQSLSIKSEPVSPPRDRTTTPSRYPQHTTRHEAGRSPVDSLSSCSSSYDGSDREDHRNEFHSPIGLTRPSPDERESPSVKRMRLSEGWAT
# No constants are given. Whether binding was seen depends on the method and setting. In cells and extracts the contact can be indirect. Some results given as binding are weak or reduced against the parent protein; the word gives no strength.
# How the values were obtained:
# VN-CLOCK = target: T1, VN-CLOCK (UniProt O08785); experiment: split reporter; Venus BiFC in C2C12 myoblasts; 250 ng of each VN and VC plasmid co-transfected with 100 ng mCherry; Leica SP8 confocal microscope 24 hr post transfection
# T1 sequence: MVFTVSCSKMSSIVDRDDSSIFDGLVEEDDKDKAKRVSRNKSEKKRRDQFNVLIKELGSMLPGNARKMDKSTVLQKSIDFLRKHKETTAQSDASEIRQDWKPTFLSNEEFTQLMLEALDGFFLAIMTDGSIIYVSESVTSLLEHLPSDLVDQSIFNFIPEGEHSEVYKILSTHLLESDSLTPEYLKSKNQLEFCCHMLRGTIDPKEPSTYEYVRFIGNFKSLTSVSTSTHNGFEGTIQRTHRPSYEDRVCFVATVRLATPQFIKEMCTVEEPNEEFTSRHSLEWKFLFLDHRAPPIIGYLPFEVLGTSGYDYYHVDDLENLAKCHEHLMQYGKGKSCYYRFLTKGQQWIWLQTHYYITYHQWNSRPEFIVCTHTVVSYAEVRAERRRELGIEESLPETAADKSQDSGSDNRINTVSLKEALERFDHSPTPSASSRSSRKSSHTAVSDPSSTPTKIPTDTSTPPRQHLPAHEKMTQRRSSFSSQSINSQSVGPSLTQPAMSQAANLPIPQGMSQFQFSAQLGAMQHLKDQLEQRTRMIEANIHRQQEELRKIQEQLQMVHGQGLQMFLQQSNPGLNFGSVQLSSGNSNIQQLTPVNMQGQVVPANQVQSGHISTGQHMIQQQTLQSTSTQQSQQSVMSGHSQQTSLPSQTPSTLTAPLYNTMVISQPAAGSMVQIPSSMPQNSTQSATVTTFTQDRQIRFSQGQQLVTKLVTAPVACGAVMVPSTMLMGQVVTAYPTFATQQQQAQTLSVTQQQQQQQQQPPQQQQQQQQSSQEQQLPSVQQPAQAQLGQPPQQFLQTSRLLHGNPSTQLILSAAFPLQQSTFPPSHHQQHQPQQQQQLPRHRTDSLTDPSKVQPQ
# VN-MYOD1 = VN-MYOD1 (UniProt P10085); experiment: split reporter; Venus BiFC with the fragments swapped (VN-MYOD1 with VC-CLOCK or VC-BMAL1); data not shown
# VN-HDAC5 = VN-HDAC5 (UniProt Q9Z2V6); experiment: split reporter; Venus BiFC in C2C12 myoblasts; 250 ng of each VN and VC plasmid co-transfected with 100 ng mCherry; Leica SP8 confocal microscope 24 hr post transfection
# VN-BMAL1 = VN-BMAL1 (UniProt Q9WTL8); experiment: as above
binding (VN-CLOCK),binding (VN-MYOD1),binding (VN-HDAC5),binding (VN-BMAL1),Substance
binds,binds,,,VC-BMAL1 (from UniProt Q9WTL8 1-632)
,,binds,,VC-MEF2C (from UniProt Q8CFN5 1-474)
binds,,,binds,VC-MYOD1 (from UniProt P10085 1-318)
